No constants are given. Whether binding was seen depends on the method and setting. In cells and extracts the contact can be indirect. Some results given as binding are weak or reduced against the parent protein; the word gives no strength. For some of these results: Sequences can lack the tags named with a protein.
Assays:
[1] = target: T1, HA-tagged Orc1 (HeLa) (human) (UniProt Q13415); assay: co-IP; anti-HA immunoprecipitation from HeLa cells transiently transfected with HA-Orc1; western blot for endogenous Rb
T1 sequence: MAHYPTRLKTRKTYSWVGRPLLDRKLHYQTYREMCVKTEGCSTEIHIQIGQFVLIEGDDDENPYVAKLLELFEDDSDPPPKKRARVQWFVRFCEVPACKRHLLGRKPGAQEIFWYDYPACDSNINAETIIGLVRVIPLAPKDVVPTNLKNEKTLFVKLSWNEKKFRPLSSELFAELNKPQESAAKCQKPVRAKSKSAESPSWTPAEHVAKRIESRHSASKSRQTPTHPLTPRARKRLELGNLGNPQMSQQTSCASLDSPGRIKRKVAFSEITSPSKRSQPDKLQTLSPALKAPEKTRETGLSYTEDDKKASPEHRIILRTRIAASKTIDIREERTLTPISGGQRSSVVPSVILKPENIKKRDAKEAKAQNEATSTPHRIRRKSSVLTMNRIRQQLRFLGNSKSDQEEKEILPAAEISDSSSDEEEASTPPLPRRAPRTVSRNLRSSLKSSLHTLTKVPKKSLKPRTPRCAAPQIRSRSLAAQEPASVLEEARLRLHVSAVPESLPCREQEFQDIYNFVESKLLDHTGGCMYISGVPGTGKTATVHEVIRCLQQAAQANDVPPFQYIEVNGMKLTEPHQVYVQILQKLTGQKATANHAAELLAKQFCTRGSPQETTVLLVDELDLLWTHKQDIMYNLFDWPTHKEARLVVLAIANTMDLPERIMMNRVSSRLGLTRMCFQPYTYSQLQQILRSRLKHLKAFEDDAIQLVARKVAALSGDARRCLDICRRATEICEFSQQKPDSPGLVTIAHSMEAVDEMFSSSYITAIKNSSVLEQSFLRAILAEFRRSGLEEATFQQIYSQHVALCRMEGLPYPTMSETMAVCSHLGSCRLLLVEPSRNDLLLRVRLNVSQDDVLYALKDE

[2] = target: T2, endogenous Orc1 (HeLa) (human (endogenous in HeLa)) (UniProt Q13415); assay: co-IP; endogenous proteins, lysates of asynchronous HeLa cells in HNNG buffer (15 mM Hepes pH 7.5, 250 mM NaCl, 1% NP-40, 5% glycerol), antibody overnight at 4 C, protein A/G beads, DNase I treated; western blot
T2 sequence: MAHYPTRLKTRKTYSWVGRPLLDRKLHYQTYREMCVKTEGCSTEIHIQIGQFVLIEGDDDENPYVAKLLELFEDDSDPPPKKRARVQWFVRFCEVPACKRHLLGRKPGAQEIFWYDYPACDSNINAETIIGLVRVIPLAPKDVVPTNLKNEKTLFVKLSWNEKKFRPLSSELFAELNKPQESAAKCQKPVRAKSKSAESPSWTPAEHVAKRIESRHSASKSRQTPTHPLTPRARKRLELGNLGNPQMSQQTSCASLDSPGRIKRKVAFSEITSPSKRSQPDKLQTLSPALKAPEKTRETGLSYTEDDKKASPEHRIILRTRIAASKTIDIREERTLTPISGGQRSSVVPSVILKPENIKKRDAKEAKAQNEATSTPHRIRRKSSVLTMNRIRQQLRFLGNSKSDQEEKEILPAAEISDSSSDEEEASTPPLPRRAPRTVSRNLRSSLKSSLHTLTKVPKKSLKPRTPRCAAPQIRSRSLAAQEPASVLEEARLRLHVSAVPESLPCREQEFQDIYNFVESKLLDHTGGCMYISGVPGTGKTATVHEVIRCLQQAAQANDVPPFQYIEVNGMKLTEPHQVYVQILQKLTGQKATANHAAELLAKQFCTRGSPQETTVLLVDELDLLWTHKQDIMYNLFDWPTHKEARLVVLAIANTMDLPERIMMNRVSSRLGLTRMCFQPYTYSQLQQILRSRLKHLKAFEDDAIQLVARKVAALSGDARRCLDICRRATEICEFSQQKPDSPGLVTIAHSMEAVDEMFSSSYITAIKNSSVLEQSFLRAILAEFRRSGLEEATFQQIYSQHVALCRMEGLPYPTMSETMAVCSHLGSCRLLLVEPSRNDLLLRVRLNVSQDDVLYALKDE

[3] = target: T3, HA-Orc1 LPGRK (U2OS) (human) (UniProt Q13415); assay: co-IP; anti-HA immunoprecipitation from U2OS cells transfected with wt HA-Orc1 or HA-Orc1 LPGRK; western blot for endogenous Rb
T3 sequence: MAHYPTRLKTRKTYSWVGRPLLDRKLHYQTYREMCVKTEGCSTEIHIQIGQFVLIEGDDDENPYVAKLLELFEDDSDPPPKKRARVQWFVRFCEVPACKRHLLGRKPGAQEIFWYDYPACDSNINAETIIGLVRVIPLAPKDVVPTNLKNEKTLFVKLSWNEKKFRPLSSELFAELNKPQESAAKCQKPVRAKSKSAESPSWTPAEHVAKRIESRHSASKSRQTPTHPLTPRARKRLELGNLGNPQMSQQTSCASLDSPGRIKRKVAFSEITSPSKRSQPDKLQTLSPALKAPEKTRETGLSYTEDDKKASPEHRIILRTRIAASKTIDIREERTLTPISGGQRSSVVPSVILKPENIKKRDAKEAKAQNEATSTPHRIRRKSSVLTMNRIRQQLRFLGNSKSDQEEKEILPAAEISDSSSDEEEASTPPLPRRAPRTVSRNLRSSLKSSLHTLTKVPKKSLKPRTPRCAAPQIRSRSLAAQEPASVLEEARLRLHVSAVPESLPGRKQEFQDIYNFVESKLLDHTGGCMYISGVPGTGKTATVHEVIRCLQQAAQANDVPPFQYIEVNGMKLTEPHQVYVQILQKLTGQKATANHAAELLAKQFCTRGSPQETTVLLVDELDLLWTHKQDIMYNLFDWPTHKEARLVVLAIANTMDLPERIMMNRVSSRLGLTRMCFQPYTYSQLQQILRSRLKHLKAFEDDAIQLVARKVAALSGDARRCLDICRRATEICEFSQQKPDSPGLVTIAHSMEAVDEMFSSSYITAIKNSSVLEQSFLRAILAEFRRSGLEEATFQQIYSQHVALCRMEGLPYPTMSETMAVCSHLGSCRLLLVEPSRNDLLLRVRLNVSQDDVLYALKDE

[4] = target: T4, wt HA-Orc1 (U2OS) (human) (UniProt Q13415); assay: as above
T4 sequence: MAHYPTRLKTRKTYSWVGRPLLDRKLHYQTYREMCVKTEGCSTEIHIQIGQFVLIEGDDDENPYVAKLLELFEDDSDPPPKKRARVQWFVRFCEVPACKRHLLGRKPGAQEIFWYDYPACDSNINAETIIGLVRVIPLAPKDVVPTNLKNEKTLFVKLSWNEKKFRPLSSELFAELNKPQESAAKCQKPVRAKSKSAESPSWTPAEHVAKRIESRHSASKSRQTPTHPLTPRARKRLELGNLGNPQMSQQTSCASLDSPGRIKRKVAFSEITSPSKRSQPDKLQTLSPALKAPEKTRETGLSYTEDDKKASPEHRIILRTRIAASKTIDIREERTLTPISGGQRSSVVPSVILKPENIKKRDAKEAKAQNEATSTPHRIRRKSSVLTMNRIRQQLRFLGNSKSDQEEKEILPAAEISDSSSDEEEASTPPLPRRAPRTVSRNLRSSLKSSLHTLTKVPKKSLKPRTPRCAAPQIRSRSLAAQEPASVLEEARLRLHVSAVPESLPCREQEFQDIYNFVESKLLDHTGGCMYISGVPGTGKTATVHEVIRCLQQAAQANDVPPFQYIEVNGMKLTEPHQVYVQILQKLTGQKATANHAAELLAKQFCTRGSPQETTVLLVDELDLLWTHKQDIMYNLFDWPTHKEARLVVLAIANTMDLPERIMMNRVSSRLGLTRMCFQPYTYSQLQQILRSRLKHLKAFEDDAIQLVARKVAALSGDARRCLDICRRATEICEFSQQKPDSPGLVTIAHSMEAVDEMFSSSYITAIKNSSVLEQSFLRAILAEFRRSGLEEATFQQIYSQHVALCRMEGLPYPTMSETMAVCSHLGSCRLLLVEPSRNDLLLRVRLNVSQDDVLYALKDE

B1: endogenous Rb (HeLa) (protein, UniProt P06400 1-928)
chain: MPPKTPRKTAATAAAAAAEPPAPPPPPPPEEDPEQDSGPEDLPLVRLEFEETEEPDFTALCQKLKIPDHVRERAWLTWEKVSSVDGVLGGYIQKKKELWGICIFIAAVDLDEMSFTFTELQKNIEISVHKFFNLLKEIDTSTKVDNAMSRLLKKYDVLFALFSKLERTCELIYLTQPSSSISTEINSALVLKVSWITFLLAKGEVLQMEDDLVISFQLMLCVLDYFIKLSPPMLLKEPYKTAVIPINGSPRTPRRGQNRSARIAKQLENDTRIIEVLCKEHECNIDEVKNVYFKNFIPFMNSLGLVTSNGLPEVENLSKRYEEIYLKNKDLDARLFLDHDKTLQTDSIDSFETQRTPRKSNLDEEVNVIPPHTPVRTVMNTIQQLMMILNSASDQPSENLISYFNNCTVNPKESILKRVKDIGYIFKEKFAKAVGQGCVEIGSQRYKLGVRLYYRVMESMLKSEEERLSIQNFSKLLNDNIFHMSLLACALEVVMATYSRSTSQNLDSGTDLSFPWILNVLNLKAFDFYKVIESFIKAEGNLTREMIKHLERCEHRIMESLAWLSDSPLFDLIKQSKDREGPTDHLESACPLNLPLQNNHTAADMYLSPVRSPKKKGSTTRVNSTANAETQATSAFQTQKPLKSTSLSLFYKKVYRLAYLRLNTLCERLLSEHPELEHIIWTLFQHTLQNEYELMRDRHLDQIMMCSMYGICKVKNIDLKFKIIVTAYKDLPHAVQETFKRVLIKEEEYDSIIVFYNSVFMQRLKTNILQYASTRPPTLSPIPHIPRSPYKFPSSPLRIPGGNIYISPLKSPYKISEGLPTPTKMTPRSRILVSIGESFGTSEKFQKINQMVCNSDRVLKRSAEGSNPPKPLKKLRFDIEGSDEADGSKHLPGESKFQQKLAEMTSTRTRMQKQKMNDSMDTSNKEEK
[1]
  binding: binds
[2]
  binding: binds

B2: endogenous Rb (U2OS) (protein, UniProt P06400 1-928)
chain: MPPKTPRKTAATAAAAAAEPPAPPPPPPPEEDPEQDSGPEDLPLVRLEFEETEEPDFTALCQKLKIPDHVRERAWLTWEKVSSVDGVLGGYIQKKKELWGICIFIAAVDLDEMSFTFTELQKNIEISVHKFFNLLKEIDTSTKVDNAMSRLLKKYDVLFALFSKLERTCELIYLTQPSSSISTEINSALVLKVSWITFLLAKGEVLQMEDDLVISFQLMLCVLDYFIKLSPPMLLKEPYKTAVIPINGSPRTPRRGQNRSARIAKQLENDTRIIEVLCKEHECNIDEVKNVYFKNFIPFMNSLGLVTSNGLPEVENLSKRYEEIYLKNKDLDARLFLDHDKTLQTDSIDSFETQRTPRKSNLDEEVNVIPPHTPVRTVMNTIQQLMMILNSASDQPSENLISYFNNCTVNPKESILKRVKDIGYIFKEKFAKAVGQGCVEIGSQRYKLGVRLYYRVMESMLKSEEERLSIQNFSKLLNDNIFHMSLLACALEVVMATYSRSTSQNLDSGTDLSFPWILNVLNLKAFDFYKVIESFIKAEGNLTREMIKHLERCEHRIMESLAWLSDSPLFDLIKQSKDREGPTDHLESACPLNLPLQNNHTAADMYLSPVRSPKKKGSTTRVNSTANAETQATSAFQTQKPLKSTSLSLFYKKVYRLAYLRLNTLCERLLSEHPELEHIIWTLFQHTLQNEYELMRDRHLDQIMMCSMYGICKVKNIDLKFKIIVTAYKDLPHAVQETFKRVLIKEEEYDSIIVFYNSVFMQRLKTNILQYASTRPPTLSPIPHIPRSPYKFPSSPLRIPGGNIYISPLKSPYKISEGLPTPTKMTPRSRILVSIGESFGTSEKFQKINQMVCNSDRVLKRSAEGSNPPKPLKKLRFDIEGSDEADGSKHLPGESKFQQKLAEMTSTRTRMQKQKMNDSMDTSNKEEK
[3]
  binding: binds
[4]
  binding: binds
